Reference: patent US12377069B2, “Compounds, compositions, methods of using, and methods for preparing compounds” (UNIVERSITY OF LOUISVILLE RESEARCH FOUNDATION, INC., priority 2018, dated 2025)
Some of these results come from one statement about several compounds together.

Experiments:
Cyp1A1 = Cyp1A1 enzyme activity in colon and liver microsomes of treated mice; assay type: in vivo; settings: i.p.; UroA/UAS03 5 mg/kg/day, FICZ 1 μg/mouse/day, 1 week
Experimental: Measurements of Cyp1A1 enzyme activity (Ex vivo): Mice were treated with Vehicle or UroA or UAS03, BNF or FICZ daily for one week at indicated concentration either through oral or i.p. route. After one week, mice were euthanized and the colon and liver tissues were dissected. Microsomes from these tissues were prepared using the following procedure (SINGH et al., (2013) “Evaluation of memory enhancing clinically available standardized extract of Bacopa monniera on P-glycoprotein and cytochrome P450 3A in Sprague-Dawley rats” PloS one, Vol. 8, Article e72517). For hepatic microsomes, liver was first perfused with 0.9% sodium chloride solution and excised out. Adhering blood and saline was removed by blotting on tissue paper and tissue was homogenized in tissue homogenization buffer (50 mM Tris-HCl, pH 7.4 with 250 mM sucrose). Homogenate was centrifuged at 10,000×g for 30 minutes at 4° C. supernatant obtained was further centrifuged at 105,000×g for 60 minutes at 4° C. The pellet was washed with homogenization buffer and centrifuged again at 105,000×g for 60 minutes at 4° C. […]
Ethoxyresorufin-O-deethylase (EROD) assay: The microsomal proteins (0.5 mg) were mixed with 200 μL Tris buffer (0.1 M, pH 7.4) containing ethoxyresorufin (0.01 mM). […] Supernatant was used to determine resorufin by measuring fluorescence (Ex. 530 nm, Em. 580 nm). […]

[1] = system: 5FU resistant (5FUR) colon cancer cell lines; test: Cell viability of 5FU resistant colon cancer cell lines; assay type: cell-based; settings: with 5FU, 5FUR cell lines
[2] = system: colon cancer cell line (SW480); test: Proliferation assay with 5FU

Structure (SMILES)	Cyp1A1 enzyme activity induction in liver (Cyp1A1)	combination index (CI) [1]	inhibition of cancer cell growth in combination ([2]; with 3.12 μM of 5FU)	Chou-Talalay combination index (CI) ([2]; with 5FU, from isobolograms)
Oc1ccc2c(c1)COc1cc(O)ccc1-2 [UAS03, 6H-benzo[c]chromene-3,8-diol]	5-6 fold	less than 1	up to 60%	< 0.5
O=c1oc2cc(O)ccc2c2ccc(O)cc12 [UroA, 3,8-dihydroxy-6H-dibenzo[b,d]pyran-6-one]	5-6 fold	–	–	–
